Reference: article PMC12040169 (PLOS Biology, 2025)
The list shows a part of the results.

Test system: T1, CTL2-GFP (C. trachomatis L2/434/Bu, GFP-expressing)
T1 construct: L2/434/Bu, GFP-expressing
Set-up: species or system HeLa; Intracellular C. trachomatis growth in HeLa cells, bulk GFP fluorescence relative to DMSO
Details: bulk GFP, single well; 28.5 h, 10 µM; inhibitor

Structure (SMILES)	% of control remaining [%]
Cc1cc(C)nc(SCC(=O)N2c3ccccc3C(C)(c3ccc(Cl)cc3)CC2(C)C)n1 (stereo not drawn) [CBK073872]	25.4166
CC(=O)Nc1ccc(NCc2ncc(C(C)(C)C)o2)c(Cl)c1 [CBK306135]	119.489
CSCCOc1cc(NC(C)C)ncn1 [CBK115889]	86.7619
COc1ccc(NC(=O)Cn2cnc3c2c(=O)n(C)c(=O)n3C)cc1Cl [CBK134216]	83.1263
COc1cnc(-c2cc(Cl)cc(Cl)c2)c(NC(=O)c2ccsc2)n1 [CBK145340]	186.91
O=c1c(-c2ccccc2)c(O)cc(-c2ccccc2)n1Cc1ccccc1 [CBK291188]	127.8
Cc1[nH]c2cccc(C(=O)N3CCOC(C)(C(=O)NC4CCCC4)C3)c2c1C (stereo not drawn) [CBK285800]	135.01
CC1=CCC2C(=O)N(c3ccccc3)C(=O)C2C1 (stereo not drawn) [CBK086490]	127.623
CCc1onc(C)c1C(=O)N1CCN(C2CCNC2)CC1 (stereo not drawn) [CBK304258]	160.122
C=C(C)Cn1c(SCC(C)C)nnc1-c1ccc(O)nc1 [CBK200094]	118.826
Cc1cc(C[C@@H]2COC[C@H]2NCC(C)c2ccccc2)on1 (stereo partly drawn) [CBK285145]	106.25
O=C(Cc1ccc(-c2ccccc2)cc1)NCc1cccnc1 [CBK262591]	111.822
COc1ccc(NC(=O)c2ccc3c(c2)C(=O)N(Cc2ccncc2)C3=O)cc1 [CBK269660]	137.24
Cc1ncccc1COC(=O)Nc1cnc2ccccc2c1 [CBK200128]	77.0305
Cc1ccc(NC(C(N)=O)c2c(C)[nH]c(=O)[nH]c2=O)cc1 (stereo not drawn) [CBK111355]	119.337
Cc1cnc(NCC2(CO)CCOCC2)nc1N(C)C [CBK307026]	96.152
Cc1ccc(Oc2ccc(C(F)(F)F)cc2[N+](=O)[O-])c(Br)c1 [CBK002817]	146.941
C=CCN1CCC(C(=O)NC(C)c2ccc(OC)c(OC)c2)CC1 (stereo not drawn) [CBK148924]	95.2162
O=C(CCSc1ccccc1)Nc1ccc(Br)cc1F [CBK266825]	116.25
Cc1noc(C2=CC=CN3C2=NNC32CCNCC2)n1 [CBK288058]	126.499
COc1cccc(NC(=O)N2CCN3C(=O)[C@H](Cc4ccc(O)cc4)NC(=O)[C@@H]3C2)c1 [CBK289618]	136.163
Cn1cnc([N+](=O)[O-])c1Oc1cccc(C(F)(F)F)c1 [CBK002790]	58.9276
CC(=O)N1CCc2sccc2C1c1ccc(NC(=O)c2ccccc2F)cc1 (stereo not drawn) [CBK286433]	111.021
O=C(O)c1ccccc1-n1c(=O)c2cc3c(=O)n(-c4ccccc4C(=O)O)c(=O)c3cc2c1=O [CBK261097]	100
Cc1cc2c(cc3c(=O)n(CC(=O)N4CCCCC4)nc(C)n32)o1 [CBK283630]	135.974
O=C(NCc1ccc(Cl)c(Cl)c1)c1cnoc1-c1ccccc1Cl [CBK154942]	92.7566

Structure (SMILES)	% of control remaining [%]
N#CCc1ccc(Nc2cc(-c3cccc(N)c3)ncn2)cc1 [CBK091187]	134.9
NC(=O)CCn1c(=S)n(CCC(N)=O)c2ccccc21 [CBK262301]	112.809
Nc1ncc(-c2ccc(O)cc2)nc1N1CCC[C@@H]1CO [CBK063669]	167.469
O=C1NCC2(C/C=C/CCOc3ccccc31)CCN(C(=O)CCN1CCCC1)CC2 [CBK292020]	125.092
Cc1[nH]nc(-c2ccc(OCc3cnn(-c4ccccc4)c3)cc2O)c1Oc1ccc(Cl)cc1 [CBK264939]	100
COC(=O)c1ccc2c(=O)n(CC(C)O)c(SC)nc2c1 (stereo not drawn) [CBK305018]	136.03
CC1CCc2c(sc(NC(=O)c3cc(-c4ccccn4)nc4c(Cl)cccc34)c2C(N)=O)C1 (stereo not drawn) [CBK267744]	154.76
COCCn1c(CO)nnc1[C@H]1C[C@@H](NC(=O)c2ccc(F)cc2C)C1 [CBK306856]	142.637
CC(C)(C)S(=O)(=O)c1ccc2nc3c(n2c1)CCCC3 [CBK006753]	105.265
CCCN(C)Cc1ccc(-c2cn(CC(=O)NCc3ccc(C(F)(F)F)cc3)nn2)cc1 [CBK164719]	125.624
CCCC(=O)c1ccc(S(=O)(=O)N2CCN(Cc3ccc(F)c(C(F)(F)F)c3)CC2)cc1 [CBK063162]	112.538
O=C(COc1ccc(S(=O)(=O)N2CCOCC2)cc1)N1CCc2ccccc2C1 [CBK268350]	129.452
Cc1ccc2c(c1)nc(CNC(=O)NCc1ccnc(C)n1)n2C [CBK304292]	87.8987
Cc1ccccc1-n1ncc2c1NC(=O)N1CCCN=C21 [CBK284409]	100.32
CC(C)(C)c1cn(C[C@H]2CC3CCN2C[C@@H]3C(=O)NC2CCCCC2)nn1 (stereo partly drawn) [CBK289085]	146.476
Cc1ccccc1C(=O)NCC(=O)Nc1ccc(Br)c2ccccc12 [CBK091343]	78.0295
O=C(CN1CCOCC1)N1CCN(C(=O)c2ccco2)CC1 [CBK144478]	108.941
Cc1ccc(N(CC(=O)Nc2ccc(S(=O)(=O)N3CCCCC3)cc2)S(C)(=O)=O)c(C)c1 [CBK263981]	86.3953
O=C(COc1ccc([N+](=O)[O-])cc1)N/N=C/c1cc(Br)cc(Br)c1O [CBK262094]	78.0809
Nc1nc2cccnc2cc1-c1ccc2c(c1)OCCCO2 [CBK081201]	130.959
CCOc1cc(/C=N/Nc2nncn2N)cc(I)c1O [CBK027879]	122.891
O=C(NC1CCCC1)c1ccc(-c2cnc3[nH]c(=O)n(C4CCCCC4)c3n2)cc1 [CBK064582]	82.8224
c1ccc(-c2nnc(C3CCNCC3)[nH]2)nc1 [CBK288629G]	127.976
C[C@@H](c1ccccc1)n1c(=O)[nH]c2ncc(-c3cccc4cccnc34)nc21 [CBK064199]	185.389
CC(C)c1ccc(NS(=O)(=O)c2cc3c(N4CCNCC4)nccc3s2)cc1 [CBK038104C]	104.618
Cn1cc(CN2CCC(C(=O)NC(c3ccc4c(c3)OCO4)c3ccccn3)CC2)c2ccccc21 (stereo not drawn) [CBK148183]	168.107

Shown comma-delimited: entries from further up.
Structure (SMILES),% of control remaining [%]
Cc1cc(C)nc(SCC(=O)N2c3ccccc3C(C)(c3ccc(Cl)cc3)CC2(C)C)n1 (stereo not drawn) [CBK073872],25.4166
CSCCOc1cc(NC(C)C)ncn1 [CBK115889],86.7619
O=c1c(-c2ccccc2)c(O)cc(-c2ccccc2)n1Cc1ccccc1 [CBK291188],127.8
Cc1[nH]c2cccc(C(=O)N3CCOC(C)(C(=O)NC4CCCC4)C3)c2c1C (stereo not drawn) [CBK285800],135.01
CC1=CCC2C(=O)N(c3ccccc3)C(=O)C2C1 (stereo not drawn) [CBK086490],127.623
CCc1onc(C)c1C(=O)N1CCN(C2CCNC2)CC1 (stereo not drawn) [CBK304258],160.122
Cc1cc(C[C@@H]2COC[C@H]2NCC(C)c2ccccc2)on1 (stereo partly drawn) [CBK285145],106.25
COc1ccc(NC(=O)c2ccc3c(c2)C(=O)N(Cc2ccncc2)C3=O)cc1 [CBK269660],137.24
Cc1ncccc1COC(=O)Nc1cnc2ccccc2c1 [CBK200128],77.0305
O=C(CCSc1ccccc1)Nc1ccc(Br)cc1F [CBK266825],116.25
COc1cccc(NC(=O)N2CCN3C(=O)[C@H](Cc4ccc(O)cc4)NC(=O)[C@@H]3C2)c1 [CBK289618],136.163
O=C(O)c1ccccc1-n1c(=O)c2cc3c(=O)n(-c4ccccc4C(=O)O)c(=O)c3cc2c1=O [CBK261097],100
O=C(NCc1ccc(Cl)c(Cl)c1)c1cnoc1-c1ccccc1Cl [CBK154942],92.7566
N#CCc1ccc(Nc2cc(-c3cccc(N)c3)ncn2)cc1 [CBK091187],134.9
NC(=O)CCn1c(=S)n(CCC(N)=O)c2ccccc21 [CBK262301],112.809
COC(=O)c1ccc2c(=O)n(CC(C)O)c(SC)nc2c1 (stereo not drawn) [CBK305018],136.03
CC(C)(C)S(=O)(=O)c1ccc2nc3c(n2c1)CCCC3 [CBK006753],105.265
CCCC(=O)c1ccc(S(=O)(=O)N2CCN(Cc3ccc(F)c(C(F)(F)F)c3)CC2)cc1 [CBK063162],112.538
CC(C)(C)c1cn(C[C@H]2CC3CCN2C[C@@H]3C(=O)NC2CCCCC2)nn1 (stereo partly drawn) [CBK289085],146.476
Cc1ccc(N(CC(=O)Nc2ccc(S(=O)(=O)N3CCCCC3)cc2)S(C)(=O)=O)c(C)c1 [CBK263981],86.3953

Later entries.

Structure (SMILES)	% of control remaining [%]
CCOC(=O)c1cn(CC)c2cc(N3CCCC3)c(F)cc2c1=O [CBK307169]	128.764
Cn1c(SCc2ccc([N+](=O)[O-])cc2)nnc1C(O)c1ccccc1 (stereo not drawn) [CBK269735]	138.695
O=C(O)c1ccc(NS(=O)(=O)c2cc(Br)c(Cl)s2)cc1 [CBK034049]	87.58
COc1cccc([C@H]2CN(C(=O)c3ccccc3)[C@@H]3CCN(Cc4ccccc4C)C[C@H]23)c1 [CBK285610]	88.2165
CC(C)(C)OC(=O)N1CCCC(C(=O)NCc2ccco2)C1 (stereo not drawn) [CBK305102]	145.333
O=C(O)CCC(=O)Nc1cccc2ccccc12 [CBK260889]	111.052
O=C(CSc1nnc2sc3ccccc3n12)N1c2ccccc2Sc2ccccc21 [CBK265457]	121.688
Cc1cc(C)n(CC(O)CN(Cc2ccccc2)Cc2ccco2)n1 (stereo not drawn) [CBK282957]	148.831
CC(C)(C)c1cc(CCC(c2cc(C(C)(C)C)c(O)c(C(C)(C)C)c2)c2cc(C(C)(C)C)c(O)c(C(C)(C)C)c2)cc(C(C)(C)C)c1O [CBK261271]	104.139
Cc1noc2nc(-c3ccco3)cc(C(=O)N(C)CCOc3ccccc3)c12 [CBK295623]	103.539
O=C(c1cccnc1)C1CCN(C(=O)c2cccs2)CC1 [CBK283528]	86.731
CC(=O)c1ccc(S(=O)(=O)Nc2ccc(C)cc2)cc1 [CBK045380]	98.7196
CC(=O)Nc1cccc(-c2cnc(N)c(NC3CCOCC3)n2)c1 [CBK063845]	96.9
O=C(CSCc1ccc(Br)cc1)Nc1cccnc1 [CBK268543]	108.381
CN(C)CC1CCCCN1C(=O)C1CC2C=CC1C21CC1 (stereo not drawn) [CBK282085]	111.925
COc1ccccc1-c1cnn2c(NCC3CCCO3)cc(C)nc12 (stereo not drawn) [CBK304529]	147.123
CC1CCN(C(=O)[C@@H]2CN(C)C[C@]23CCc2ccccc2C3=O)CC1 [CBK284589]	108.53
O=C(Nc1cccc2ccccc12)N1CCN(Cc2ccc3c(c2)OCO3)CC1 [CBK074747]	85.886
CSCC(=O)N[C@H]1CCN2C(=O)N(c3cccc(C(C)=O)c3)C(=O)[C@@H]2C1 [CBK289546]	109.473
O=c1[nH]c2ccc(S(=O)(=O)Nc3ccc(-c4ccccc4)cc3)cc2[nH]1 [CBK266999]	106.691
Cc1cc(C2CCCCCN2C(=O)c2c(C)noc2C)no1 (stereo not drawn) [CBK284845]	128.12
c1ccc(OCCNc2nccnc2N2CCNCC2)cc1 [CBK013527]	87.2747
CN(C)CC(C)(C)CNC(=O)c1cnc2cc(C(F)(F)F)ccc2c1O [CBK107427]	88.7393
Cc1ccc2nc(CN3CCC(CNc4ccccn4)C3)cc(=O)n2c1 (stereo not drawn) [CBK306340]	143.228
COc1cccc(C(=O)Nc2nc(-c3ccc(C(C)C)cc3)cs2)c1 [CBK101110]	108.953
OC1CCn2c1nc1cc(Cl)ccc12 (stereo not drawn) [CBK113623]	115.917
